Measurements reported in patent US20070136826A1 (Biogen, published 2007).
Results are given in words; binding and its absence hold for the method and conditions named. Some binding calls cover weakened binding; strength is not graded here. For some of these results: Where a sequence is shown, tags or fusion partners need not be part of it. Values belong to the binder of their own block, whether it stands above or below them.

Tests used:
[1] = target: T1, Mouse CD20 (endogenous, on mouse B cell lines and splenic B cells) (mouse) (UniProt P19437); assay: flow cytometry on cells
T1 sequence: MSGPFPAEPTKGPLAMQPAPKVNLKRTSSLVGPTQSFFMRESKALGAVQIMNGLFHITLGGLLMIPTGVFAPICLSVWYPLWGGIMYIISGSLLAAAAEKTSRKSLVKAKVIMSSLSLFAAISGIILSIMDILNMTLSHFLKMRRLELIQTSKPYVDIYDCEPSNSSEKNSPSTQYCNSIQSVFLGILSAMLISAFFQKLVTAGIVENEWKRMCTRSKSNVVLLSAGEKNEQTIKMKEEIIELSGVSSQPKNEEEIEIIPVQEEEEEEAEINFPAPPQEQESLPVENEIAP

[2] = target: T1, Mouse CD20 (endogenous, on mouse B cell lines and splenic B cells) (mouse); assay: flow cytometry on mouse B cell lines and splenocytes
[3] = target: T1, Mouse CD20 (endogenous, on mouse B cell lines and splenic B cells) (mouse); assay: flow cytometry on CD19+ splenocytes of wild type C57BL/6 mice, isotype-specific biotin secondary and APC-streptavidin
[4] = target: T2, Mouse CD20 with C-terminal V5 peptide tag, on transfected 300.18 cells (mouse) (UniProt P19437); assay: flow cytometry on 300.18-CD20 cells, anti-mouse kappa detection
T2 sequence: T1 sequence

binding [1]: binds
binding [2]: binds
B1: 18B12 IgG2c isotype switch variant (antibody, V domains shown)
VH: QVQLQQPGAELVRPGTSVKLSCKASGYTFTSYWMHWIKQRPGQGLEWIGVIDPSDNYTKYNQKFKGKATLTVDTSSSTAYMQLSSLTSEDSAVYFCAREGYYGSSPWFAYWGQGTLVTVSS
VL: QIVMSQSPAILSASPGEKVTMTCRARSSVSYIHWYQQKPGSSPKPWIYATSNLASGVPGRFSGSGSGTSYSLTITRVEAEDAATYYCQQWSSKPPTFGGGTKLEIKR

binding [3]: binds
binding [4]: binds
B2: 18B12 IgG2a engineered mouse IgG2a anti-mouse CD20 monoclonal antibody (antibody, V domains shown)
VH: B1 VH
VL: B1 VL
